Measurements from the supplement of paper PMC10338343.
± gives the standard deviation. The list shows a part of the results, in another mix than the full data. Many of these values have a large error. This is one part of the list.

What was measured:
[1] = test system: MIWI (PIWIL1) piRISC loaded with L1MC piRNA (30 nt); assay: pre-steady-state target cleavage rate (min^-1); higher = faster piRNA-guided slicing of the target; conditions: guide: L1MC piRNA 5'p-UAACUAAAUACUAUGCAAGCUGUAGGUCCU
Procedure, shortened: (§1)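 Active affinity-purified piRISC (1 nM) loaded with one synthetic guide was mixed with a transcribed, DNA-blocked target RNA library (0.1 nM), with or without 500 nM GTSF1 partner protein, in HEPES–potassium acetate buffer at 33 °C for 0–8 or 0–960 min. Uncleaved targets were sequenced, normalised to depth and to weakly complementary targets, and pooled across three trials, with k3 capped at 0.0001 min^-1. The pre-steady-state cleavage rate was determined with a burst-and-steady-state fit.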

[2] = test system: EfPiwi piRISC loaded with L1MC piRNA (26 nt); assay: pre-steady-state target cleavage rate (min^-1); guide: L1MC piRNA 5'p-UAACUAAAUACUAUGCAAGCUGUAGG; MIWI and MILI are mouse PIWI proteins and EfPiwi is from a freshwater sponge; tags in brackets are library labels; higher = faster piRNA-guided slicing of the target
Procedure, shortened: as §1

[3] = auxiliary factor: 500 nM mouse GTSF1
[4] = auxiliary factor: none (no Gtsf1)
[5] = auxiliary factor: none (no GTSF1)
[6] = auxiliary factor: 500 nM Ephydatia muelleri Gtsf1

Sequence | pre-steady-state target cleavage rate [1, 3] | pre-steady-state target cleavage rate [2, 4] | pre-steady-state target cleavage rate [1, 5] | pre-steady-state target cleavage rate [2, 6]
UCCUGGAUGUCGAACGUUCGUAUUUAGUUA | 0.000222 ± 0.022 | < 0.0001 | – | –
UCCUGGAUGUCGAUGGAUAGUAAUUAGUUA | – | 0.00029 ± 0.022 | 0.000469 ± 0.017 | –
UCCUGCUACAGCUUCGAUAGUAUUUUCAAA | – | – | 0.00035 ± 0.02 | 0.00274 ± 0.0034
UCCUGCUACAGCAACCAUAGUAUUUAGAAA | – | – | 0.000157 ± 0.032 | 0.00206 ± 0.004
UCCUGGAUGUCGAACGUGAGUAUUUAGUUA | – | – | 0.000286 ± 0.017 | 0.000198 ± 0.014
UCCUGGAUGUCGAUGCAUAGUAUUUUAGUUA | – | – | 0.000782 ± 0.0092 | 0.00197 ± 0.0049
UCCUGGAUGUCGUUGCAUAAGUAUUUAGUUA | 0.000432 ± 0.019 | – | – | 0.000254 ± 0.021
UCCUGGAUGUCGAACGAUAUAUUUAGUUA | 0.000125 ± 0.043 | < 0.0001 | – | –
UCCUGGAUGUCGAACCAUAGUAUUUUGUUA | 0.000207 ± 0.015 | – | – | 0.000238 ± 0.016
UCCUGCUACAGCUUGCAUAGUAAAUACAAA | – | – | 0.000652 ± 0.014 | 0.0021 ± 0.0034
UCCUGGAUGUCGAAGCAUAGUAUUAAGAUA | – | – | 0.000377 ± 0.013 | 0.000738 ± 0.0086
UCCUGGAUGUCGUUGCUUAGUUUUUAGUUA | 0.000582 ± 0.018 | – | – | 0.000177 ± 0.03
UCCUGGAUGUGCUUGCAUUGAAUUUAGUUA | – | – | 0.000871 ± 0.0039 | 0.000205 ± 0.025
UCCUGGAUGUCCAUUGCAUAGUAUUUAGUUA | – | 0.00189 ± 0.0054 | 0.00217 ± 0.0034 | –
UCCUGGAUGUGCAAGCAUAGUAUUUAGUAA | – | – | 0.00129 ± 0.0077 | 0.00351 ± 0.0051
UCCUGGAUGUCGAACCAUAGUAUUAAGUAA | – | – | 0.000302 ± 0.017 | 0.000712 ± 0.01
UCCUGGAUGUGCUUGGAUAGUAUUUAGAAA | – | – | 0.000918 ± 0.008 | 0.00162 ± 0.0038
UCCUGGAUGUCGAACGUCAGUAUUUAGUUA | – | – | 0.000136 ± 0.03 | < 0.0001
UCCUGGAUGUCGAUCCAUAGUAUUAAGUUA | – | – | 0.000168 ± 0.03 | 0.000447 ± 0.01
UCCUGGAUCUCCUUGCAUAGUAUUUUCAAA | – | – | 0.0013 ± 0.0049 | 0.000701 ± 0.0082

No new results follow: an excerpt of the list.
Sequence | pre-steady-state target cleavage rate [1, 3] | pre-steady-state target cleavage rate [2, 4] | pre-steady-state target cleavage rate [1, 5] | pre-steady-state target cleavage rate [2, 6]
UCCUGGAUGUCGAACCAUAGUAUUAAGUAA | – | – | 0.000302 ± 0.017 | 0.000712 ± 0.01
UCCUGGAUGUGCUUGGAUAGUAUUUAGAAA | – | – | 0.000918 ± 0.008 | 0.00162 ± 0.0038

(next part)

Sequence | pre-steady-state target cleavage rate [1, 3] | pre-steady-state target cleavage rate [2, 4] | pre-steady-state target cleavage rate [1, 5] | pre-steady-state target cleavage rate [2, 6]
UCCUGGAUCAGCUUCCAUAGUAUUUAGUAA | – | – | 0.00172 ± 0.0034 | 0.00347 ± 0.0017
UCCUGGAUGUCGUUGCAUAUGUAUUUAGUUA | – | 0.000209 ± 0.035 | 0.000692 ± 0.014 | –
UCCUGGAUGUCGAACGUAAAGUAUUUAGUUA | – | – | 0.000221 ± 0.022 | 0.000462 ± 0.012
UCCUCCUACAGCUUCGUUAGUAUUUAGUUA | – | – | 0.00132 ± 0.0027 | 0.00276 ± 0.0037
UCCUGGAUGAGCUUGCAAGUAUUUAGUUA | – | – | 0.00155 ± 0.0025 | 0.00199 ± 0.0043
UCCUGGAUGUCCAUGCAUAGUUUUUAGUUA | – | – | 0.00129 ± 0.0053 | 0.000336 ± 0.011
UCCUGGAUGUCGAUGCAUAGUAAAUAGUUA | – | – | 0.000891 ± 0.0057 | 0.000546 ± 0.01
UCCUGGAUCACGAUGCAUAGUAUUUAGUUA | – | – | 0.0027 ± 0.0031 | 0.0115 ± 0.004
UCCUGGAUGUCGAACCAUAGUCAUUUAGUUA | – | – | 0.000393 ± 0.013 | 0.000277 ± 0.026
UCCUGGAUGUCGUACGAUAGUAUUUAGUUA | – | – | 0.000224 ± 0.02 | 0.000172 ± 0.018
UCCUGGAUGUCGUAGCAUAGUAUAUAGUUA | – | 0.000101 ± 0.065 | 0.000977 ± 0.0078 | –
UCCUGCUACAGCUUGCAUAGUAUUGUAGUUA | – | – | 0.00257 ± 0.0044 | 0.00279 ± 0.0016
UCCUGGAUGUCGAACGUUAGAAUUUUGUUA | 0.000154 ± 0.053 | < 0.0001 | – | –
UCCUGGAUGUGCUUGGAAAGUAUUUAGUUA | – | 0.000499 ± 0.018 | 0.00233 ± 0.0033 | –
UCCUGGAACAGCUACGAUAGUAUUUUCAAA | – | – | 0.000749 ± 0.0077 | 0.000397 ± 0.0086
UCCUGGAUGUCCUUGCAUUCUAUUUAGUUA | – | – | 0.000771 ± 0.0063 | 0.000158 ± 0.021
UCCUGGAUCAGCAAGCAUAGUAUUUAGUAA | – | – | 0.00246 ± 0.0032 | 0.00238 ± 0.0036
UCCUGGAUGUCCUUGCAAUCAUAAAUCAAA [g14:g19:cont:t1A] | – | < 0.0001 | 0.000395 ± 0.014 | –
UCCUGGAACAGCUACGAUAGUAUUUAGUAA | – | – | 0.000337 ± 0.0086 | 0.000324 ± 0.01
UCCUGGAACAGCUUCCAUAGUAUUUAGAUA | – | – | 0.000815 ± 0.0089 | 0.00228 ± 0.0017

Sequence | pre-steady-state target cleavage rate [1, 3] | pre-steady-state target cleavage rate [2, 4] | pre-steady-state target cleavage rate [1, 5] | pre-steady-state target cleavage rate [2, 6]
UCCUGGAACAGCUUCGAUAGUAUUUAGUAA | – | – | 0.00217 ± 0.0037 | 0.00136 ± 0.0039
UCCUGGAUGUGCUUCCAUAGUAUUUAGAUA | – | – | 0.00055 ± 0.014 | 0.00187 ± 0.0033
UCCUGGAUGUCGAUGCAUAGUAUUUAGGUA | – | – | 0.00111 ± 0.0062 | 0.000503 ± 0.0091
UCCUGGAUGAGCUACGAUAGUAUUUAGUAA | – | – | 0.000384 ± 0.016 | 0.000291 ± 0.017
UCCUGGAACAGGAAGCAUAGUAUUUAGUUA | – | 0.000506 ± 0.013 | 0.00179 ± 0.0025 | –
UCCUCCUACAGCUUGGUAAGUAUUUAGAAA | – | – | 0.000259 ± 0.01 | 0.00107 ± 0.0057
UCCUGGAACACGUUGCAUAGUAUUUAGAAA | – | – | 0.00114 ± 0.0058 | 0.00137 ± 0.0034
UCCUGGAUCAGCUUGCAUAGAUAUUAGUAA | – | – | 0.000288 ± 0.018 | 0.000324 ± 0.013
UCCUGGAUGUCGAAGCAUAGUAUUUAGUGA | – | < 0.0001 | 0.00137 ± 0.0041 | –
UCCUGGAUGUCCUUGCAUAGAUAAAUCAAA [g11:g19:cont:t1A] | – | – | 0.000385 ± 0.022 | 0.000169 ± 0.015
UCCUGGAUGUCGUUCCUUAGUAUUUAGUUA | – | – | 0.000157 ± 0.032 | 0.000829 ± 0.0077
UCCUGGAUGUCGUUGCAUAGUUAAUAGUUA | – | – | 0.0015 ± 0.005 | 0.00043 ± 0.01
UCCUCCUUCAGCUUGCAUAGUAUUUUCAAA | – | – | 0.00173 ± 0.0034 | 0.00259 ± 0.0024
UCCUGGAUGUGCAACCAUAGUAUUUAGAAA | – | – | 0.000148 ± 0.05 | 0.000237 ± 0.013
UCCUGGAUGUCCUCUGCAUAGUAUUUAGUUA | – | – | 0.00245 ± 0.0031 | 0.00412 ± 0.003
UCCUGGAUGUCGAAGCAUUGAAUUUAGUUA | – | – | 0.00041 ± 0.015 | 0.000718 ± 0.0078
UCCUGGAUGUCGAAGCAUAGUAAAAUCAAA [g9:g16:cont:t1A] | – | – | 0.00034 ± 0.018 | 0.000592 ± 0.0099
UCCUGGAUGUCGUUGCAUAGUAUUUAGUUC [g2:g18:cont:t1C] | – | – | 0.0024 ± 0.0034 | 0.00372 ± 0.0037
